The source of these data is PubChem BioAssay AID493014 (National Center for Advancing Translational Sciences (NCATS), 2011).

The experiment can be described thus: qHTS Assay to Find Inhibitors of Chronic Active B-Cell Receptor Signaling. The note with it: ABC-DLBCL IkBa-CBG/CBR reporter, luminescence ratio (green luciferase fused to IkBa over red control in TMD8 lymphoma cells), 4 h. In short, it runs like this:
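TMD8 ABC-DLBCL cells carrying doxycycline-inducible green luciferase fused to IkappaBalpha plus unfused red luciferase were exposed to compounds (up to 46 uM) for 4 hrs at 37C. Activity came from the overlap-corrected green/red luminescence ratio.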
(In qHTS, concentration-response curves come from the screen itself.)

Setting [1] is: measured here: CBR red luminescence, cell number.
The mark [2] stands for this setting: measured here: IkBa-CBG green luminescence.

In general, AC50 refers to the midpoint of the concentration-response curve, whichever way the signal moves.

Some of the results follow. The main result of the screen is listed elsewhere. These columns were measured beside it and carry no call. Compounds called inactive in the main read-out are mostly missing here. Words in brackets tell the shape of the fitted curve; partial curves, single points and poor fits give uncertain potencies.

For `CCCN(CC(=O)Nc1ccccc1C)C(=O)c1cccc(S(=O)(=O)N2CCc3ccccc3C2)c1`, the AC50 under setting [1] was 10 µM [falling, partial curve, poor fit].
Still for that read-out and setting: in the case of `O=C(COC(=O)c1cccc(NC(=O)c2ccco2)c1)c1ccc(Br)cc1` it was 11.2 µM [falling, partial curve]; in that of `CNC(=O)NCCN1CCCC1=O`, 29.1 µM [rising, single point].
Same read-out and setting: in the case of `COc1ccccc1C(=O)Nc1ccc(C)c(S(=O)(=O)N2CCCCC2)c1` it was 20.6 µM [falling, single point]; in that of `Cc1cccc(NC(=O)CN(C)C(=O)C2CC2)c1C`, 3.26 µM [falling, single point].
Same read-out and setting: in the case of `FC(F)(F)c1nnc2ccc(-n3ccnc3)nn12` it was 23.1 µM [rising, single point]; in that of `O=C(COc1ccc2ccccc2c1)Nc1ccncc1`, 0.501 µM [rising, full curve, poor fit]; in that of `CCCOc1ccc(Cc2c(O)nc(SC)[nH]c2=O)cc1C`, 3.55 µM [falling, full curve].
Regarding `CC(C)(C)NCC(O)COc1ccccc1C(C)(C)C` (stereo unspecified), the AC50 under setting [1] is 17.8 µM [falling, single point].
In the case of `C[C@@]12C(=O)N(c3cccc(Br)c3)C(=O)N1[C@H](c1ccc(Cl)cc1)[C@@H]1C(=O)N(C3CCCCC3)C(=O)[C@@H]12`, the AC50 under setting [1] is 4.47 µM [falling, full curve, poor fit].
On to `CCC(=O)NC(c1ccccc1Cl)c1c(O)ccc2ccccc12` (stereo unspecified), for which the AC50 under setting [1] is 29.1 µM [falling, single point].
Consider `CCOC(=O)c1ccc(-c2ccc3oc(-c4ccsc4)cc(=O)c3c2)cc1F`, for which, under setting [1], the AC50 is 0.103 µM [falling, full curve, poor fit].
`C=CCn1c(SCC(=O)Nc2cccc(S(N)(=O)=O)c2)nc2sc(C)c(C)c2c1=O`: the AC50 reads like this: under setting [1], 0.82 µM [rising, full curve, poor fit]; under setting [2], 4.61 µM [falling, full curve].
Turning to `COc1ccc(C(=O)NCCc2cn3ccccc3n2)cc1`, the AC50 under setting [1] is 2.82 µM [rising, partial curve, poor fit].
On to `O=C(OCc1c(-c2ccccc2)ncc2ccccc12)c1cccc(Br)c1`, for which the AC50 under setting [1] is 9.2 µM [falling, partial curve].
On to `Cc1cccc(C(=O)Nc2cccc(C(=O)N/N=C/c3ccccn3)c2)c1`, for which the AC50 under setting [1] is 14.1 µM [falling, single point].
On to `CC(=O)OC(COc1cccc(C)c1)Cn1cnc2ccccc21` (stereo unspecified), for which the AC50 under setting [1] was 10 µM [falling, partial curve, poor fit].
Take `N#C/C(=C\c1cn(Cc2ccccc2F)c2ccccc12)C(=O)NCc1ccco1`: the AC50 under setting [1] was 4.61 µM [rising, single point].
Same read-out and setting: in the case of `CC1(C)CC(=O)C=C(NCCN2CCN(C(=O)Nc3ccc(Cl)cc3)CC2)C1` it was 7.94 µM [rising, partial curve]; in that of `CCC(C)NC(=O)c1c(N)n(/N=C/c2cccs2)c2nc3ccccc3nc12` (stereo unspecified), 4.47 µM [falling, partial curve, poor fit]; in that of `Cc1ccccc1NC(=O)c1ccc(CSc2ncccn2)cc1`, 0.316 µM [falling, full curve, poor fit].
On the same count and under the same terms, in the case of `O=[N+]([O-])c1c(NCCO)cc(N2CCC3(CC2)OCCO3)c2nonc12` it was 18.4 µM [rising, partial curve, poor fit].
In the case of `NS(=O)(=O)c1ccc(-c2ccc(/C=N/NC(=O)c3ccccc3O)o2)cc1`, the AC50 under setting [1] is 7.08 µM [falling, partial curve].
Still for that read-out and setting: in the case of `COc1ccccc1-c1ccc(Nc2cccc(C(F)(F)F)c2)nn1` it was 2.31 µM [rising, full curve].
Same read-out and setting: in the case of `O=C(c1cc(-c2ccc(O)cc2)on1)N1CCCC1` it was 12.6 µM [falling, partial curve, poor fit].
Take `O=C(OCc1nc2ccc(Cl)cc2n1CCO)c1ccc2c(c1)OCO2`: the AC50 under setting [1] is 22.4 µM [falling, partial curve, poor fit] and the AC50 under setting [2] was 28.2 µM [rising, partial curve, poor fit].
On to `CCOC(=O)c1ccc(NC(=O)c2ccccc2[N+](=O)[O-])cc1`, for which the AC50 under setting [1] is 10.3 µM [falling, partial curve, poor fit].
The same measure, in the same setting: in the case of `CCOC(=O)N1CCN(C(=O)c2c(-c3ccccc3)noc2C)CC1` it was 7.31 µM [rising, single point]; in that of `CN(C)CCC(=O)c1cccc(Br)c1`, 35.5 µM [falling, single point].
With `Cc1noc(C)c1C(=O)Nc1nnc(-c2ccccc2)s1`, the AC50 under setting [1] was 8.91 µM [falling, partial curve].
As to `COCC(=O)Nc1cc(C(=O)Nc2ccccc2)ccc1Cl`, under setting [1], the AC50 is 22.4 µM [falling, partial curve, poor fit].
The same measure, in the same setting: in the case of `COc1ccc(C(=O)Nc2ccc(NC(=O)c3ccccn3)cn2)cc1` it was 3.98 µM [rising, full curve].
`COC(=O)COc1cccc2c(=O)n(CC(=O)NCc3ccc(F)cc3)ccc12`: the AC50 under setting [2] is 6.31 µM [falling, partial curve, poor fit].
Consider `O=C(Nc1nnc(S(=O)(=O)N2CCOCC2)s1)c1ccccc1F`, for which, under setting [1], the AC50 is 5.62 µM [rising, partial curve, poor fit].
Still for that read-out and setting: in the case of `Nc1ccc(-c2nc3c(Cl)c(N)ccc3[nH]2)cc1` it was 10 µM [falling, partial curve]; in that of `CCCn1c(CNC(=O)c2cccs2)nc2ccccc21`, 20.6 µM [falling, partial curve, poor fit]; in that of `COc1ccc(NC(=O)C/C(C)=N/NC(=O)C(=O)NC2CCCCC2)c(OC)c1`, 0.794 µM [falling, full curve].
Same read-out and setting: in the case of `NC(=O)C1CCCN(C(=O)c2cccc(NC(=O)c3cccs3)c2)C1` (stereo unspecified) it was 16.4 µM [falling, partial curve, poor fit]; in that of `Cc1ncc([N+](=O)[O-])n1CC(=O)N/N=C/c1ccccc1F`, 2.51 µM [rising, full curve, poor fit]; in that of `C=CC[C@]12CCc3ccccc3C1N(c1ccc(C(=O)OCC)cc1)C2=O` (stereo partly specified), 1.84 µM [falling, partial curve, poor fit].
In the case of `O=C(Nc1cccc(/C=C/c2ccccn2)c1)c1cc(Cl)ccn1`, under setting [1], the AC50 was 3.55 µM [falling, partial curve].
Take `O=C(NCCN1CCOCC1)c1cc(-c2ccc(Cl)c(Cl)c2)on1`: under setting [1], the AC50 was 35.5 µM [rising, single point].
With `CCCn1c(O)c(N=NC(=O)CNC(=O)c2cccnc2)c2ccccc21`, under setting [1], the AC50 is 5.62 µM [rising, single point].
As to `O=C(NNC(=O)c1ccc(Cl)c([N+](=O)[O-])c1)c1ccncc1`, the AC50 under setting [1] is 25.1 µM [falling, single point].
The same measure, in the same setting: in the case of `Cc1ccccc1-c1nc2cc(Cl)ccc2o1` it was 7.94 µM [rising, partial curve]; in that of `COc1ccc(-c2nn(-c3ccccc3)cc2/C=N/NC(=S)NC(C)C)cc1OC`, 4.11 µM [rising, partial curve].
Regarding `OCc1cc(C(O)CNCCCCCCOCCCCc2ccccc2)ccc1O` (stereo unspecified), the concentration at half-maximal activity (AC50) under setting [2] was 0.251 µM [falling, full curve, poor fit].
Take `Cc1ccc(C(=O)COC(=O)COc2ccccc2[N+](=O)[O-])s1`: the AC50 under setting [1] is 3.66 µM [rising, full curve, poor fit].
The same measure, in the same setting: in the case of `CCC1CCCCN1S(=O)(=O)c1ccc(S(=O)(=O)N2CCN(S(=O)(=O)CC)CC2)cc1` (stereo unspecified) it was 25.9 µM [rising, single point].
In the case of `COc1cccc(CC(=O)Nc2ccc(-c3nc4ccccc4s3)cc2)c1`, the AC50 under setting [1] was 8.91 µM [rising, partial curve, poor fit].
For the compound `COCCn1c(=O)[nH]c2cc(C(=O)Nc3cccc(F)c3)ccc2c1=O`, the AC50 under setting [1] was 5.01 µM [falling, full curve].
Consider `Cc1nc(N)nc(N)c1/C=C/C(C)(C)c1ccc(Cl)cc1`, for which the AC50 under setting [1] is 11.2 µM [falling, partial curve, poor fit].
Regarding `O=C(COc1ccc(Br)cc1)NCc1ccccn1`, under setting [1], the AC50 is 16.4 µM [rising, single point].
The same measure, in the same setting: in the case of `CCCN(C(=O)c1nc2nc(C)cc(C)n2n1)c1c(N)n(Cc2ccccc2)c(=O)[nH]c1=O` it was 25.9 µM [rising, single point].
Regarding `Nn1c(COc2ccc(Cl)cc2)nc2ccccc2c1=O`, the AC50 under setting [1] is 1.16 µM [rising, full curve, poor fit].
The same measure, in the same setting: in the case of `Fc1ccc(CSc2ncnc3scc(-c4ccccc4)c23)cc1` it was 8.2 µM [rising, partial curve, poor fit].
With `COCCNC(=S)Nc1ccc(N2CCCCC2)cc1`, the AC50 under setting [1] was 15.8 µM [rising, single point].
On the same count and under the same terms, in the case of `C=CCN=C1S/C(=C/c2ccc([N+](=O)[O-])cc2)C(=O)N1CC=C` it was 20 µM [rising, partial curve, poor fit]; in that of `CNC(=S)N(CCc1c(C)[nH]c2ccc(C)cc12)Cc1cccs1`, 35.5 µM [falling, single point].
The same measure, in the same setting: in the case of `O=C(COC(=O)c1ccc(S(=O)(=O)N2CCOCC2)cc1)Nc1nc(-c2ccccc2)cs1` it was 4.11 µM [rising, full curve, poor fit].
On the same count and under the same terms, in the case of `COc1ccc(CCNC(=O)c2cc(-c3cc(Cl)ccc3O)n[nH]2)cc1OC` it was 15.8 µM [falling, single point]; in that of `CC(O)C(NC(=O)OCc1ccccc1)C(=O)OCc1ccccc1` (stereo unspecified), 2.06 µM [rising, partial curve, poor fit]; in that of `Brc1ccc(-c2nc(-c3cccnc3)no2)o1`, 1.58 µM [rising, full curve, poor fit].
`CCCOC(=O)c1ccc(NC(=O)CCOc2ccccc2)cc1`: under setting [2], the AC50 was 0.58 µM [rising, full curve, poor fit].
